# Library screening results

Chains of the proteins cited; added tags and fusions are not shown.
UniProt E9BF75, entry or part of it: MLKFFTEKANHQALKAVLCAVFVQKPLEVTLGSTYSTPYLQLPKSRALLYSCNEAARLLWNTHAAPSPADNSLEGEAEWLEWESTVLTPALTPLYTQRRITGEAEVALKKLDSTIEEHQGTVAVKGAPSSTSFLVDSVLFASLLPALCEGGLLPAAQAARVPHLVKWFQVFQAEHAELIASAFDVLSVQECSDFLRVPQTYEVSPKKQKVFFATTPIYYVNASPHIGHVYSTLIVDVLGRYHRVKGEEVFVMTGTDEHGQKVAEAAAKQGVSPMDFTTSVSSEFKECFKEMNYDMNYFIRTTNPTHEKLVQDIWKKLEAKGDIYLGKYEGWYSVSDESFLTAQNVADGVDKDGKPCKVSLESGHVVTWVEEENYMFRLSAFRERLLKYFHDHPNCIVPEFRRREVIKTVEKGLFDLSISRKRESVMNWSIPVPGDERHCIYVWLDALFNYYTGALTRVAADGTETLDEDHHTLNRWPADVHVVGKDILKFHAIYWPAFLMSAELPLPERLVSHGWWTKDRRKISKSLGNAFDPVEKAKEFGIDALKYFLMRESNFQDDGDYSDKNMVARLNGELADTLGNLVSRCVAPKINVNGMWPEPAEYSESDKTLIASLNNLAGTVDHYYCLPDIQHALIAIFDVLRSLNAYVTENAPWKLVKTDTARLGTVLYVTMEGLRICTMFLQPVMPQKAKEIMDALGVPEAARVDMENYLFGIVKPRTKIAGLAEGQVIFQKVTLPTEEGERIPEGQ

Measurements from “University of Dundee, Small-Polar-MMV Screening Library” (2021), ChEMBL document CHEMBL3988442.

A: 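Primary screen of methionyl-tRNA synthetase; the read-out is not stated. Target: Methionyl-tRNA synthetase (putative), Leishmania donovani (UniProt E9BF75). The test concentration is not given. The values are filed as inhibition. Of about 68,000 compounds tested this way, about 24 (0.035%) reached 50% or more in at least one test.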
B: 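Assay on Mycobacterium tuberculosis, filed only as a heat shock assay from Cornell; the read-out is not stated. The concentration is filed as 10 mM, unlikely as a test dose, so the dose is not known. The record gives no direction; compounds that gave an IC50 in retests scored well above the rest, so higher reads as stronger inhibition. Size under these conditions: about 69,000 compounds, about 930 of them at 50% or above in at least one test.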

All values are in %.
The controls that fix the scale are not given in the record; negative values are as filed.
This is an unselected part of the compounds tested.
A dash means the value is not listed here; it may have been measured.

structure,A,B
Cc1[nH]c(=O)sc1S(=O)(=O)N1CCCC1C(=O)NC1CC1 (stereo not shown),13.98%,-2.498%
O=S(=O)(C1CC1)N1CCCn2cnc(COc3cccnc3)c2C1,17.49%,-
O=C(Cc1ccccn1)N1CCC2(CC1)[C@H](O)C[C@@H]2O,19.89%,-0.4342%
NCCC1CN(c2nc(-c3ccccc3)nc3c2CCNC3)CCO1 (stereo not shown),16.31%,-1.98%
Cc1ccc(N2CCC3(CCC(=O)N3Cc3ccncc3)CC2)nn1,14.66%,-
Cc1nccn1-c1ccc(C(C)NCc2cc[nH]n2)cc1 (stereo not shown),18.21%,-9.763%
CNS(=O)(=O)CC(=O)NC(C)Cc1cccc(Cl)c1 (stereo not shown),5.59%,8.938%
CCOc1cccc(CNCc2ccc(NC(=O)NC(C)C)cc2)c1,20.22%,-33.44%
CCOCC1CN(C2CCCC2)Cc2cnn(CC3CCOCC3)c21 (stereo not shown),15%,-
CCOc1ccccc1C1CCCN1.Cl (stereo not shown),-,3.065%
CCc1n[nH]c(C2CN(CC(=O)N(C)Cc3ccco3)CCO2)n1 (stereo not shown),-,2.962%
CC[C@H](Cn1ncc2ccccc2c1=O)NC(=O)c1ccccn1,6.383%,0.816%
NC(=O)c1cccc(CC2CCN(C(=O)CCCN3CCOCC3)C2)c1 (stereo not shown),12.32%,16.24%
COc1cccc(CNC[C@@]2(COc3cccnc3)C[C@@H](O)[C@@H](O)C2)c1.Cl.Cl,-,-35.38%
CCC(CC)c1cc(CNC(=O)N2CCCN(C(C)=O)CC2)on1,-0.7117%,13.97%
CCC(Oc1ccc(N(C)S(C)(=O)=O)cc1)C(=O)NC (stereo not shown),5.128%,1.742%
O=C1NCC2(CCCN(Cc3cccnc3)C2)Oc2ccccc21 (stereo not shown),15.62%,-6.149%
[H][C@@]12CCN(Cc3nccs3)C[C@]1(c1nnc(C)o1)CCO2,-,-3.656%
COC(=O)C1CCN(C(=O)c2nnc3ccc(C)cc3n2)CC1,9.399%,15.86%
CC(C)NC(=O)[C@H]1C[C@@H]2[C@@H](C1)OCCN2Cc1ccncc1,11.4%,-
O=C(Cc1ccccc1O)Nc1ccc(N2CCCC2)nc1,12.1%,-3.211%
Cc1cnn(CC2CCCN2C(=O)CCc2c(C)noc2Cl)c1 (stereo not shown),13.38%,8.18%
CC(OCC1CC1)C(=O)N1CCCN(Cc2cnn(C)c2)CC1 (stereo not shown),1.389%,-13.03%
Cc1ccc(C)c2c(O)cc(CNCC(=O)N3CCCC3)nc12,4.79%,-11.88%
Cc1nc(C)n(CC2CN(c3ncccc3C#N)CCO2)n1 (stereo not shown),18.16%,-6.57%
Cc1cc(C(=O)N(Cc2c(C)nn(C)c2C)C(C)C)nc(C)n1,3.621%,-29.84%
COCCN(Cc1cccnc1)c1nc(C)nc2oc(C)nc12,7.436%,-37.73%
CC(=O)N1CC(=O)N(c2cnn(C)c2)CC12CCN(Cc1ccsc1)C2.O=C(O)C(F)(F)F.O=C(O)C(F)(F)F (stereo not shown),-,-13.12%
CN1C(=O)CC[C@]12CC[C@@H](NC(=O)NCc1cccnc1)CC2.O=C(O)C(F)(F)F,-,5.32%
CC(C)C(C)N(C)Cc1nnc(-c2ccc(Br)s2)o1 (stereo not shown),12.77%,37.24%
CC(C)c1nccn1C1CCCN(C(=O)c2ccc3c(c2)COC3)C1 (stereo not shown),12.71%,18.67%
CC(NC(=O)COc1cccc[n+]1[O-])C1CC1 (stereo not shown),11.41%,3.071%
CC(C)Oc1cccc2c1c(NC(=O)CN(C)C)nn2CC(F)(F)F,14.98%,-1.036%
Cc1cccc(NCCNc2ccc(C#N)cn2)n1,9.441%,-21.25%
CCOCCC1(C(=O)N2CCCC(c3ncc[nH]3)C2)CCCC1 (stereo not shown),9.763%,13.64%
O=C1C(Nc2nccn3cnnc23)CCCN1c1ccccc1Cl (stereo not shown),4.225%,-21.41%
Cc1cc(NC(=O)C(C)Nc2cccc(COCc3ccco3)c2)no1 (stereo not shown),11.65%,47.77%
CCCc1cc(CN(C)C2CSCCSC2)n[nH]1,10.66%,-1.461%
O=C1NC[C@]2(CC[C@@H](C(=O)N3CCCC(O)C3)CC2)Oc2ccccc21 (stereo partly shown),14.19%,8.284%
Cc1ncc(CN(C)C(=O)Nc2cccc(C(=O)N3CCOCC3)c2)s1,13.12%,28.06%
COc1ccc(CN2CCN(c3nccnc3OC)CC2=O)cc1,13.44%,-33.56%
Cc1nc(-c2ccccc2C)n(CC(=O)NC2CCCC2)n1,2.564%,-25.66%
CC(C)=CCCC(C)CN1CCC(n2cc(CO)nn2)CC1 (stereo not shown),20.6%,-2.504%
[H][C@]12CCCCN1CCC[C@@]2(O)CNCCOc1ccccc1,-,-7.978%
CCc1csc(C2CCCN(C(=O)c3ccc(=O)n(C)n3)C2)n1 (stereo not shown),10.43%,-43.12%
O=C(O)C(F)(F)F.O=C(O)C(F)(F)F.[H][C@@]12CN(CC3CCOCC3)C[C@]1([H])OCCN2c1ncccn1,-,-4.757%

Some entries from above, unchanged:

| structure | A | B |
|---|---|---|
| `NC(=O)c1cccc(CC2CCN(C(=O)CCCN3CCOCC3)C2)c1` (stereo not shown) | 12.32% | 16.24% |
| `COC(=O)C1CCN(C(=O)c2nnc3ccc(C)cc3n2)CC1` | 9.399% | 15.86% |
| `CCC(CC)c1cc(CNC(=O)N2CCCN(C(C)=O)CC2)on1` | -0.7117% | 13.97% |
| `O=S(=O)(C1CC1)N1CCCn2cnc(COc3cccnc3)c2C1` | 17.49% | - |
| `Cc1ncc(CN(C)C(=O)Nc2cccc(C(=O)N3CCOCC3)c2)s1` | 13.12% | 28.06% |
| `NCCC1CN(c2nc(-c3ccccc3)nc3c2CCNC3)CCO1` (stereo not shown) | 16.31% | -1.98% |